No constants are given. Whether binding was seen depends on the method and setting. Binding calls can cover weak binding; strength is not graded here.
B1: eEF2412-420 peptide (peptide)
peptide: AFGRVFSGL
B2: eEF2409-417 peptide (peptide)
peptide: RFYAFGRVF
B3: eEF2786-794 peptide (peptide)
peptide: AYLPVNESF
B4: eEF2701-709 peptide (peptide)
peptide: RFDVHDVTL

target: human HLA-A*2402 molecule (human); test: MHC stabilization assay, T2-2402 cells, 10 µM peptide, flow cytometry

binding, binds:
B1
B2
B3
B4

target: human HLA-A*2402 molecule (human); test: MHC stabilization assay, T2-2402 cells, 10 µM peptide, flow cytometry of surface HLA-A24

binding, binds:
B1
B2
B3
B4

Source: patent publication US20160051652A1
